{"sequences": {"note": "Chains of the proteins cited; added tags and fusions are not shown. Residues count along the entry.", "UniProt Q02763, residues 23-1124": "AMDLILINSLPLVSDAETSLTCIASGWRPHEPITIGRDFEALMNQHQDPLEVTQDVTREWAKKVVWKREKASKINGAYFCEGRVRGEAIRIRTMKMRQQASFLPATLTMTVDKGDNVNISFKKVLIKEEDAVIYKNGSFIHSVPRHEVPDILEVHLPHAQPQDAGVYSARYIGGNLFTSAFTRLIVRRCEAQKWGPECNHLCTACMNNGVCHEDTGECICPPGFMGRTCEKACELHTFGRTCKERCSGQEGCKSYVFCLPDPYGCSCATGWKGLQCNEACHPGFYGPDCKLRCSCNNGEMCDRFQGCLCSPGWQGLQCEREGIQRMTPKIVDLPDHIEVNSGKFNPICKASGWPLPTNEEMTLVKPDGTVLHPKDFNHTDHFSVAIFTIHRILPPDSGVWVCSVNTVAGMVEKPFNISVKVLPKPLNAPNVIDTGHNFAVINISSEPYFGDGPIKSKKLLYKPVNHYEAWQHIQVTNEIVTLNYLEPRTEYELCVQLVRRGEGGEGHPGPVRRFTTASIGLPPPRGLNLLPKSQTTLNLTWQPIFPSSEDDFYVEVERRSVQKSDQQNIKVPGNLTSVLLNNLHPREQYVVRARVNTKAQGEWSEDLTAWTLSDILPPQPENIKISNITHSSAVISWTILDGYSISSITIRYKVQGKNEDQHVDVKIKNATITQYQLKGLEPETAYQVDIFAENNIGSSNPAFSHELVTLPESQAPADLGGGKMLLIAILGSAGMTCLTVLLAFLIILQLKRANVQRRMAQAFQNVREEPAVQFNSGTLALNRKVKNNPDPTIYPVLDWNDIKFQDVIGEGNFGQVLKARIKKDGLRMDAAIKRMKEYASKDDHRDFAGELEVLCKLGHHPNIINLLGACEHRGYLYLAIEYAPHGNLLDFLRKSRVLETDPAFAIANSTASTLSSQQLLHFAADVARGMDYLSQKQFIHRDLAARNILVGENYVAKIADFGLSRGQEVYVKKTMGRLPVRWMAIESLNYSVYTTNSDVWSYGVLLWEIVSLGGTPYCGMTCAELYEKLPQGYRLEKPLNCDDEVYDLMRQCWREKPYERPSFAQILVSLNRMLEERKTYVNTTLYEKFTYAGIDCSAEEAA"}, "source": "patent US20060147420A1", "about": "(University of Texas, published 2006)", "binders": {"B1": {"name": "NLLMAAS (T4) peptide linked to FAM (peptide)", "peptide": "NLLMAAS", "modifications": "N-terminal aminohexanoic acid labeled by coupling 5(6)-carboxyfluorescein"}}, "target": "Tie2 receptor (on or in glioma and endothelial cells) (human) (UniProt Q02763)", "experiment": "flow cytometry with FAM-labelled peptide on the U-251 MG isogenic system and A172 cells", "note": "These are yes or no findings as the source states them, for the method shown. Some binding calls cover weakened binding; strength is not graded here.", "data": [{"binder": "B1", "values": [{"measurement": "binding", "value": "binds"}]}]}
